Read-outs that look alike come from different tables or passages of the source.
Test system: U87 cells
Assay: Reversibility (washout) cell viability assay
Format: cell-based
Conditions: Homo sapiens, U-87 MG

**Q.** What does the source list for COc1cc2c(c(OC)c1OC)-c1ccc(OC)c(=O)cc1[C@@H](NC(C)=O)CC2 [colchicine, reference compound]?
**A.** IC50 (72 h, read-out: IC50 cell viability, no-washout): 13 nM; IC50 (read-out: IC50 cell viability, after washout): 80 nM

Source: publication PMC10887108, “Novel Brain-Penetrant, Small-Molecule Tubulin Destabilizers for the Treatment of Glioblastoma” (Biomedicines, 2024)
